Reference: patent publication US20060025429
The exact form of at least one protein or probe is not confirmed.

Test system: HIF-1α/ARNT heterodimer
Assay: EMSA
Details: complex formation implied by the heading (disruption of HIF-DNA complex), no numeric result in text; Z-buffer 100 mM KCl, 25 mM Tris pH 7.5, 0.2 mM EDTA, 0 C; protein translated in vitro; protein details: Promega TNT in vitro transcription/translation; label: 5'-32P on HRE-EMSA1 strand

“GACTCCACAGTGCATACGTGGGCTCCAACAGGT / ACGTGTTGGAGCCCACGTATGCACTGTGGAGTC [HRE-EMSA probe (VEGF HRE)]”: binds.
